In article PMC2821926:
These are yes or no findings as the source states them, for the method shown. In cells and extracts the contact can be indirect. Some results given as binding are weak or reduced against the parent protein; the word gives no strength. Sequences can lack the tags named with a protein.

The chains behind the UniProt entries cited, without tags or fusion partners.
UniProt P49815: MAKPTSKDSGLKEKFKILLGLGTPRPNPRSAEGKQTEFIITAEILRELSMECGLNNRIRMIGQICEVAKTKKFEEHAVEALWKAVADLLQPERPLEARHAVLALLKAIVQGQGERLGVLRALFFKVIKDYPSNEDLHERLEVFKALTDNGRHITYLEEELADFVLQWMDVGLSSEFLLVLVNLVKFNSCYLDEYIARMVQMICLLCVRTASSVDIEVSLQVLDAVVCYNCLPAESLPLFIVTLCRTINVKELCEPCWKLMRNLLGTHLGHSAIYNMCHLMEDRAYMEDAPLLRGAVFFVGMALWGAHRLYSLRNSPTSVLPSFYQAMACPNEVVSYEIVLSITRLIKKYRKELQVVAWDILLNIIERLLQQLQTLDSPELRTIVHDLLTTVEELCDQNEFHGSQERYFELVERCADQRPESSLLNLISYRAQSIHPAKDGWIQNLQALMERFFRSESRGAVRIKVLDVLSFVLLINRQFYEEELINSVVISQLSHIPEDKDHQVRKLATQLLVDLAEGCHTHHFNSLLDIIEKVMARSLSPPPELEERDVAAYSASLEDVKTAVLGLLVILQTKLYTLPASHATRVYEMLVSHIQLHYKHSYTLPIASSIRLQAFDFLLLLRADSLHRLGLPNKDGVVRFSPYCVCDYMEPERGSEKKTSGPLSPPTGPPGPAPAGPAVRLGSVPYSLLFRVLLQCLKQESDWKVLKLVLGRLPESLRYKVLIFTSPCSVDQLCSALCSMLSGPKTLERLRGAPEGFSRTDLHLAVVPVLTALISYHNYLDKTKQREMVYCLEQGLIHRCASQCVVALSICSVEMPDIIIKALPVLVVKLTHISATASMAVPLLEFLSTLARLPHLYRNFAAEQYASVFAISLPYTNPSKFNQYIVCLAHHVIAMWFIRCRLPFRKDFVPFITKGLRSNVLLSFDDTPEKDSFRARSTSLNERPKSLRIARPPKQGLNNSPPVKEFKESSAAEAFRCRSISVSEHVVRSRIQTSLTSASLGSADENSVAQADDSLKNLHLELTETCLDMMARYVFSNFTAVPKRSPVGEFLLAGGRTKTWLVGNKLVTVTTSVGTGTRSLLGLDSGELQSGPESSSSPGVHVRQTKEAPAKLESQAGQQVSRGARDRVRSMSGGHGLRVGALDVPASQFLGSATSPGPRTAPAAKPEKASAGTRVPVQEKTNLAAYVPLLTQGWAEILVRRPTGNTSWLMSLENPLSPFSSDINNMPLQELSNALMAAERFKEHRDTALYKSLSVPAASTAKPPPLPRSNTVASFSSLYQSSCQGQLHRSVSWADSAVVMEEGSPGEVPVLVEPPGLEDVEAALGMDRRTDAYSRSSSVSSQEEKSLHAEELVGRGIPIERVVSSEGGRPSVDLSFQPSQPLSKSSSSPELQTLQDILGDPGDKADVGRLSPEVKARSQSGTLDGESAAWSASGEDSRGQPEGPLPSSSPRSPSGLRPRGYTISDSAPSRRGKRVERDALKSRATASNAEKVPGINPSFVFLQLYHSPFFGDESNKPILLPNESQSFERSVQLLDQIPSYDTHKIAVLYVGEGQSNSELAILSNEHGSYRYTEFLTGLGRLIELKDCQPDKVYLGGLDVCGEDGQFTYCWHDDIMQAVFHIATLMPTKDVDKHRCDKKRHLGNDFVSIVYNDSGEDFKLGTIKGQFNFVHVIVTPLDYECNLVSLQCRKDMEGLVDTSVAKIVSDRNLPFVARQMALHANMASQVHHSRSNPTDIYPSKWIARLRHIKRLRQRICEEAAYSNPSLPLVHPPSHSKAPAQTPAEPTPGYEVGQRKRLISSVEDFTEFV

Target: tuberous sclerosis complex 2 (TSC2) tumor suppressor (human (endogenous in HEK-293)) (UniProt P49815)
Test: co-IP; lysates of transfected HEK-293 cells (expressing CD44-CP1 or Flag-CP1; Flag-TSC1 for the TSC1-TSC2 pair) incubated with anti-TSC2 or anti-TSC1 antibody and protein A and protein G Sepharose overnight at 4°C; washed with 10 mM Tris pH 7.5, 1% NP-40, 1% Triton X-100, 100 mM NaCl; immunoblot with E1/2, anti-Flag or anti-TSC2

binding: binds
B1: Flag-TSC1 (protein, UniProt Q92574 1-1164)
chain: MAQQANVGELLAMLDSPMLGVRDDVTAVFKENLNSDRGPMLVNTLVDYYLETSSQPALHILTTLQEPHDKHLLDRINEYVGKAATRLSILSLLGHVIRLQPSWKHKLSQAPLLPSLLKCLKMDTDVVVLTTGVLVLITMLPMIPQSGKQHLLDFFDIFGRLSSWCLKKPGHVAEVYLVHLHASVYALFHRLYGMYPCNFVSFLRSHYSMKENLETFEEVVKPMMEHVRIHPELVTGSKDHELDPRRWKRLETHDVVIECAKISLDPTEASYEDGYSVSHQISARFPHRSADVTTSPYADTQNSYGCATSTPYSTSRLMLLNMPGQLPQTLSSPSTRLITEPPQATLWSPSMVCGMTTPPTSPGNVPPDLSHPYSKVFGTTAGGKGTPLGTPATSPPPAPLCHSDDYVHISLPQATVTPPRKEERMDSARPCLHRQHHLLNDRGSEEPPGSKGSVTLSDLPGFLGDLASEEDSIEKDKEEAAISRELSEITTAEAEPVVPRGGFDSPFYRDSLPGSQRKTHSAASSSQGASVNPEPLHSSLDKLGPDTPKQAFTPIDLPCGSADESPAGDRECQTSLETSIFTPSPCKIPPPTRVGFGSGQPPPYDHLFEVALPKTAHHFVIRKTEELLKKAKGNTEEDGVPSTSPMEVLDRLIQQGADAHSKELNKLPLPSKSVDWTHFGGSPPSDEIRTLRDQLLLLHNQLLYERFKRQQHALRNRRLLRKVIKAAALEEHNAAMKDQLKLQEKDIQMWKVSLQKEQARYNQLQEQRDTMVTKLHSQIRQLQHDREEFYNQSQELQTKLEDCRNMIAELRIELKKANNKVCHTELLLSQVSQKLSNSESVQQQMEFLNRQLLVLGEVNELYLEQLQNKHSDTTKEVEMMKAAYRKELEKNRSHVLQQTQRLDTSQKRILELESHLAKKDHLLLEQKKYLEDVKLQARGQLQAAESRYEAQKRITQVFELEILDLYGRLEKDGLLKKLEEEKAEAAEAAEERLDCCNDGCSDSMVGHNEEASGHNGETKTPRPSSARGSSGSRGGGGSSSSSSELSTPEKPPHQRAGPFSSRWETTMGEASASIPTTVGSLPSSKSFLGMKARELFRNKSESQCDEDGMTSSLSESLKTELGKDLGVEAKIPLNLDGPHPSPPTPDSVGQLHIMDYNETHHEHS
